Measured values published in article PMC6796912.
Results are given in words; binding and its absence hold for the method and conditions named. Binding seen in cells or lysates may run through a third protein. Some entries that bind do so weakly or less than the wild type. Where a sequence is shown, tags or fusion partners need not be part of it.

Protein sequences, listed by entry. Tags and fused reporters are not part of them. Lines headed by an entry give the natural chain unless they say otherwise; changes in a name come on top.
UniProt P38110: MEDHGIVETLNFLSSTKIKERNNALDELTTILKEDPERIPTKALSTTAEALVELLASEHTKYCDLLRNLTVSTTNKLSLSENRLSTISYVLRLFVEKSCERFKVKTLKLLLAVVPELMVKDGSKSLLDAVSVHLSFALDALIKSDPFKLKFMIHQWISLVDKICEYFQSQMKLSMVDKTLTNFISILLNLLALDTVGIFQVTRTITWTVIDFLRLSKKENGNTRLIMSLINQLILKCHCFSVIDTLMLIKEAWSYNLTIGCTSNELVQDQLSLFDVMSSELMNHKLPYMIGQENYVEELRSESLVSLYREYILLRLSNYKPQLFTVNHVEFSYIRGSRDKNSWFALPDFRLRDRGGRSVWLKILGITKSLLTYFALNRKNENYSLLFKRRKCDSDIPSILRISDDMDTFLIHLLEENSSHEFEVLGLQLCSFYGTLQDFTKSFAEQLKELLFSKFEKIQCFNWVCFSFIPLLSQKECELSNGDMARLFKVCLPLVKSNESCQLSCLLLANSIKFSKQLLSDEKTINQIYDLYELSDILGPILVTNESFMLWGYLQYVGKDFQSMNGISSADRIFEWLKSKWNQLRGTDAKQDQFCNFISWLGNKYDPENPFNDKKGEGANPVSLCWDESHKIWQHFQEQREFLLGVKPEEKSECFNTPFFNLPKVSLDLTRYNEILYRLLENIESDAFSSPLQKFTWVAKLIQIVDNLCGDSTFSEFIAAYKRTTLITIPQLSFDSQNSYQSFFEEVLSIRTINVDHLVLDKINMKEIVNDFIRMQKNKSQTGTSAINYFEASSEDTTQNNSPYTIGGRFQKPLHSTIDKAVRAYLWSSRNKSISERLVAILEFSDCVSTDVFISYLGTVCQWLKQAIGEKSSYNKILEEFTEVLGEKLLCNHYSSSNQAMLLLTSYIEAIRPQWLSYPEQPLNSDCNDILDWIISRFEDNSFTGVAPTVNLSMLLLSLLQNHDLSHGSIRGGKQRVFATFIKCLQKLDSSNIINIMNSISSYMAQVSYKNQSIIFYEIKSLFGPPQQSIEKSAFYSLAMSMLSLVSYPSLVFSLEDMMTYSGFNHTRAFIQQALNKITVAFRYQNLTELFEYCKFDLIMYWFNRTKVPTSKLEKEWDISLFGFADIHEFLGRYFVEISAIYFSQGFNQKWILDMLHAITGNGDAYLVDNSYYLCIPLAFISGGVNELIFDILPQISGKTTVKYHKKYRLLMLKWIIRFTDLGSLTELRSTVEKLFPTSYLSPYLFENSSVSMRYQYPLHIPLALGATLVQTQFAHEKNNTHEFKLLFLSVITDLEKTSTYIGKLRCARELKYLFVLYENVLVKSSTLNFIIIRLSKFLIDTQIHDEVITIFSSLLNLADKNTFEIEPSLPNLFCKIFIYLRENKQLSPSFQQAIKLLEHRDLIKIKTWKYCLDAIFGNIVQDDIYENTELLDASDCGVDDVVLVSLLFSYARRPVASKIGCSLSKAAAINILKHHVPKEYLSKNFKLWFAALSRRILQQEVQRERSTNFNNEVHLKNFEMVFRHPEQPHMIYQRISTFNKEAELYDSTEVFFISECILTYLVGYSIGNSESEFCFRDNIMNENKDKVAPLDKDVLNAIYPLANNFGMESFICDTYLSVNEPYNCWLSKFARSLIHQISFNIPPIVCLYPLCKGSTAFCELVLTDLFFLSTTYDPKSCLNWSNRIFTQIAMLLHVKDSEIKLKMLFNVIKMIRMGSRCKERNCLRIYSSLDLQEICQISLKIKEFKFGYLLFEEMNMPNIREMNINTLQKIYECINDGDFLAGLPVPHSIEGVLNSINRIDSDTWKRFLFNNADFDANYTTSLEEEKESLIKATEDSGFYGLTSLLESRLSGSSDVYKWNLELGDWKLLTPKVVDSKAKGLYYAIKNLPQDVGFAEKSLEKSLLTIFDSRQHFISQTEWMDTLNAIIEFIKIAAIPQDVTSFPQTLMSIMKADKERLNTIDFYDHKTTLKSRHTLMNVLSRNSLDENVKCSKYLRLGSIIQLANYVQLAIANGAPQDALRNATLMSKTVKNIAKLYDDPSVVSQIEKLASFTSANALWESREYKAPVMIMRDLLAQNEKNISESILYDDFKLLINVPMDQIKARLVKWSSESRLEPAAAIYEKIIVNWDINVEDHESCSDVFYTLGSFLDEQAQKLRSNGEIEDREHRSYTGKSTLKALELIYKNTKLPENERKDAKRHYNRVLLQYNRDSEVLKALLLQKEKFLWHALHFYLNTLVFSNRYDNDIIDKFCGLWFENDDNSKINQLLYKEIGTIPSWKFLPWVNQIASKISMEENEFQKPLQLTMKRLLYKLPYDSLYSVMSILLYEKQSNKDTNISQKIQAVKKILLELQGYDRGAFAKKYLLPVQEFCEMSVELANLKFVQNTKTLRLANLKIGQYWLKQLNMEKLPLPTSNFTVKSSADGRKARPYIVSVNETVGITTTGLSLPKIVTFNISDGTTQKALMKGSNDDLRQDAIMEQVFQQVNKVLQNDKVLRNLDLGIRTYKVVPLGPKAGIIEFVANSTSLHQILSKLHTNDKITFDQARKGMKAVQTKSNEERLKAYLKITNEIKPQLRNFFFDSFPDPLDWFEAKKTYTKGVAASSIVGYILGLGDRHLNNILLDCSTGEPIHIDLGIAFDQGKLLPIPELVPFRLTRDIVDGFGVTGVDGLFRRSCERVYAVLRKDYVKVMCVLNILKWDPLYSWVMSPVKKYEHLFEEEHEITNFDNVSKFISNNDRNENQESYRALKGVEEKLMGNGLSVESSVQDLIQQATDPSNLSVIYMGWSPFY

Target: T1, GST-Xrs2 (full-length S. cerevisiae Xrs2) (S. cerevisiae) (UniProt P33301)
T1 sequence: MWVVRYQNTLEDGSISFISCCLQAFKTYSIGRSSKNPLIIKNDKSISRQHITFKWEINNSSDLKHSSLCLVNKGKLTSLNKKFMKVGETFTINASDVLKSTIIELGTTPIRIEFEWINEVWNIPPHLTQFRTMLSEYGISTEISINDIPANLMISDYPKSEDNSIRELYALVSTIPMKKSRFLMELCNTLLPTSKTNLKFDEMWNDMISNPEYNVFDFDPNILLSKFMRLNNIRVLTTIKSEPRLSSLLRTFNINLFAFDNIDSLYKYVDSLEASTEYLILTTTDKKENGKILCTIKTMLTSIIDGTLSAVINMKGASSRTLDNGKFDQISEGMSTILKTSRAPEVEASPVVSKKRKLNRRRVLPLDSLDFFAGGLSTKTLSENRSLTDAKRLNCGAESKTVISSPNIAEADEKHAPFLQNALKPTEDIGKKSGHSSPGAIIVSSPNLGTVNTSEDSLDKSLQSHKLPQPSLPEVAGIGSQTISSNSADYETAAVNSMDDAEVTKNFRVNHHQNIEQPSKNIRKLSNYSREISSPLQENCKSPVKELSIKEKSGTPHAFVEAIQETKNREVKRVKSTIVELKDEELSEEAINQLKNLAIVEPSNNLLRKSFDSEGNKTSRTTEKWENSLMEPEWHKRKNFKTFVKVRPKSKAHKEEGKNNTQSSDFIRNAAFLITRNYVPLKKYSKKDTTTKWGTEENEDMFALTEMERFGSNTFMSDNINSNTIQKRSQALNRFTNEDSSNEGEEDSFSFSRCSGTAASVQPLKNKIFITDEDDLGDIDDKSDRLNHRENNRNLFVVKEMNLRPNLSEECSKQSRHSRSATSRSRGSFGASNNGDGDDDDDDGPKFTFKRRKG
Assay: pull-down; glutathione sepharose saturated with full-length GST-Xrs2 added to lysates of yeast expressing wild-type or mutant Tel1; 2 h at 4 °C, washed 3 times with lysis buffer; immunoblot with anti-PAP antibody; only the target purified

Row | binding | Substance
1 | binds weakly | Tel1 F2636A (TAP-tagged) (from UniProt P38110 1-2787) (enzyme)
2 | binds weakly | Tel1 K2751E (TAP-tagged) (from UniProt P38110 1-2787) (enzyme)
3 | binds | wild-type Tel1 (TAP-tagged) in yeast lysate (from UniProt P38110 1-2787) (enzyme)
